# Values quoted from earlier work in EP3241555A1, “USE OF PYROPHOSPHATE ION ANALOGUES FOR THE TREATMENT OF HPV INFECTION” (Agencia Pública Empresarial Sanitaria Costa Del Sol, priority 2014, dated 2016).
# By UniProt entry, the sequences of proteins in these tests, tags left out. Where a name states a change or a piece, a line headed by the entry shows the natural chain unless it says otherwise.
# UniProt P04293: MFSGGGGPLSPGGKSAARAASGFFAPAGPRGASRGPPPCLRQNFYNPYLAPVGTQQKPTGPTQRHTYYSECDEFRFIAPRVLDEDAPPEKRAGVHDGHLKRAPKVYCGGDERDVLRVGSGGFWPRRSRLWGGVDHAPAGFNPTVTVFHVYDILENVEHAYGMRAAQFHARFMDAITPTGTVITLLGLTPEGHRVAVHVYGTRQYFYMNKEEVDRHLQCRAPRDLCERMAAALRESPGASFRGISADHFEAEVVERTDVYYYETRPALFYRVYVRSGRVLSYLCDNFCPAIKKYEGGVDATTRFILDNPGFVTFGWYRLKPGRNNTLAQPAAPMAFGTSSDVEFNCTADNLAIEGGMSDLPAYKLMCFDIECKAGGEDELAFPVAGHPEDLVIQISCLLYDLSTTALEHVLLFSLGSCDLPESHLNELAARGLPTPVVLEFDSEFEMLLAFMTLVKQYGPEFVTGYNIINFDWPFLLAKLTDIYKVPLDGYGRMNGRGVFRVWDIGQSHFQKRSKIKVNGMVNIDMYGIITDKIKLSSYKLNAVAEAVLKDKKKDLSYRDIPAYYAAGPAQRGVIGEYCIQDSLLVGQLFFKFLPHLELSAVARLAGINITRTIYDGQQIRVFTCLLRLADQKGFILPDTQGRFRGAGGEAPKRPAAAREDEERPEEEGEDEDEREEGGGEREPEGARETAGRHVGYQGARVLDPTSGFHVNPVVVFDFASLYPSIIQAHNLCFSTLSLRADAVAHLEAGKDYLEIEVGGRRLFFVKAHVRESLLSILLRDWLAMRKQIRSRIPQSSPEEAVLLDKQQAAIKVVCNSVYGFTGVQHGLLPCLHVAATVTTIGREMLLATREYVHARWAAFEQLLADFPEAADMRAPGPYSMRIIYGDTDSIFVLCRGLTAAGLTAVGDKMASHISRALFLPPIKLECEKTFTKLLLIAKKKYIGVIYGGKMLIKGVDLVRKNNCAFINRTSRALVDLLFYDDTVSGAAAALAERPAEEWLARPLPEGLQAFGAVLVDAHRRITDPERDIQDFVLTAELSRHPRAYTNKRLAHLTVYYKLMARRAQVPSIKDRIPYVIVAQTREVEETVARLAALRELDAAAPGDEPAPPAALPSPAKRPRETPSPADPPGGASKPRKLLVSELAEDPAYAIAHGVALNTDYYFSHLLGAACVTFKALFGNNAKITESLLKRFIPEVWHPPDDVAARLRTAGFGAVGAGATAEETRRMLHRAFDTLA
# Some results were stated once for a whole list of compounds, not compound by compound.
# Molecular target: DNA polymerase activity of HSV-1 (Human herpesvirus 1, UniProt P04293)
# Conditions: cited from earlier work
smiles,measurement,value
O=C(O)C(=O)O [oxalate],inhibit the DNA polymerase activity of HSV-1,inhibit
